Assay results taken from PMC9870865.
These are yes or no findings as the source states them, for the method shown. Binding seen in cells or lysates may run through a third protein. Some entries that bind do so weakly or less than the wild type. For part of these data: Where a sequence is shown, tags or fusion partners need not be part of it. One block for each molecule: values may come before it.

The chains behind the UniProt entries cited, without tags or fusion partners.
UniProt Q9H7E2: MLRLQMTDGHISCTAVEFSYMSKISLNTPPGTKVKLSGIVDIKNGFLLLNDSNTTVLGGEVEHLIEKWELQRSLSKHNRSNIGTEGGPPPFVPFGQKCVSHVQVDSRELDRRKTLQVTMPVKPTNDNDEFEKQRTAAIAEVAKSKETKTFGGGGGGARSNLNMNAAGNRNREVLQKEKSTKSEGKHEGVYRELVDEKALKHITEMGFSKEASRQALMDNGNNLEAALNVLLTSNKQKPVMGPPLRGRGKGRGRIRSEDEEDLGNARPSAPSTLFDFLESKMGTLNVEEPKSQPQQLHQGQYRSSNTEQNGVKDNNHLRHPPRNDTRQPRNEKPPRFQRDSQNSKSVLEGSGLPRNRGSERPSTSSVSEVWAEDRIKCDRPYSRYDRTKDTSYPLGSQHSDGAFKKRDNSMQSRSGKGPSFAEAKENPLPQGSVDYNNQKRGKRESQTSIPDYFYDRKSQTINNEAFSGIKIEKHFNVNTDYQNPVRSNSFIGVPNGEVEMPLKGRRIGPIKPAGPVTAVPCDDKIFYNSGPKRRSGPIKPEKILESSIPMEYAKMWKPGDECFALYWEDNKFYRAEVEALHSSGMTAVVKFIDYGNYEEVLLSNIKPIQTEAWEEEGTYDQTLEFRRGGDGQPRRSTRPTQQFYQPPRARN

What was measured:
NFIB (co-IP with TDRD3) = NFIB (co-IP with TDRD3) (UniProt O00712); assay: co-IP; co-IP of TDRD3 and NFIB (Supplementary Fig. 2a); cells and constructs not shown
[1] = target: NFIB (endogenous) (human (endogenous in HEK293T or HeLa, and in H69)) (UniProt O00712); assay: co-IP; endogenous NFIB and endogenous TRIM29, untreated cells (Supplementary Fig. 2b); cells not shown
[2] = target: NFIB (endogenous) (human (endogenous in HEK293T or HeLa, and in H69)) (UniProt O00712); assay: co-IP; endogenous NFIB immunoprecipitated from HEK293T cells (legend; the text says HeLa) transfected with FLAG-tagged constructs, cultured with DMSO or CARM1 inhibitor; anti-FLAG blot; lysis buffer 50 mM Tris pH 8, 150 mM NaCl, 1 mM EDTA, 0.5% NP40, 10% glycerol

binding (NFIB (co-IP with TDRD3)): binds
Molecule: TDRD3 (co-IP) (from UniProt Q9H7E2 1-651)

binding [1]: binds
B1: TRIM29 (endogenous) (protein, UniProt Q14134 1-588)
chain: MEAADASRSNGSSPEARDARSPSGPSGSLENGTKADGKDAKTTNGHGGEAAEGKSLGSALKPGEGRSALFAGNEWRRPIIQFVESGDDKNSNYFSMDSMEGKRSPYAGLQLGAAKKPPVTFAEKGELRKSIFSESRKPTVSIMEPGETRRNSYPRADTGLFSRSKSGSEEVLCDSCIGNKQKAVKSCLVCQASFCELHLKPHLEGAAFRDHQLLEPIRDFEARKCPVHGKTMELFCQTDQTCICYLCMFQEHKNHSTVTVEEAKAEKETELSLQKEQLQLKIIEIEDEAEKWQKEKDRIKSFTTNEKAILEQNFRDLVRDLEKQKEEVRAALEQREQDAVDQVKVIMDALDERAKVLHEDKQTREQLHSISDSVLFLQEFGALMSNYSLPPPLPTYHVLLEGEGLGQSLGNFKDDLLNVCMRHVEKMCKADLSRNFIERNHMENGGDHRYVNNYTNSFGGEWSAPDTMKRYSMYLTPKGGVRTSYQPSSPGRFTKETTQKNFNNLYGTKGNYTSRVWEYSSSIQNSDNDLPVVQGSSSFSLKGYPSLMRSQSPKAQPQTWKSGKQTMLSHYRPFYVNKGNGIGSNEAP

binding [2]: binds
B2: Flag-tagged TRIM29 (full length) (protein, UniProt Q14134 1-588)
chain: MEAADASRSNGSSPEARDARSPSGPSGSLENGTKADGKDAKTTNGHGGEAAEGKSLGSALKPGEGRSALFAGNEWRRPIIQFVESGDDKNSNYFSMDSMEGKRSPYAGLQLGAAKKPPVTFAEKGELRKSIFSESRKPTVSIMEPGETRRNSYPRADTGLFSRSKSGSEEVLCDSCIGNKQKAVKSCLVCQASFCELHLKPHLEGAAFRDHQLLEPIRDFEARKCPVHGKTMELFCQTDQTCICYLCMFQEHKNHSTVTVEEAKAEKETELSLQKEQLQLKIIEIEDEAEKWQKEKDRIKSFTTNEKAILEQNFRDLVRDLEKQKEEVRAALEQREQDAVDQVKVIMDALDERAKVLHEDKQTREQLHSISDSVLFLQEFGALMSNYSLPPPLPTYHVLLEGEGLGQSLGNFKDDLLNVCMRHVEKMCKADLSRNFIERNHMENGGDHRYVNNYTNSFGGEWSAPDTMKRYSMYLTPKGGVRTSYQPSSPGRFTKETTQKNFNNLYGTKGNYTSRVWEYSSSIQNSDNDLPVVQGSSSFSLKGYPSLMRSQSPKAQPQTWKSGKQTMLSHYRPFYVNKGNGIGSNEAP
